Screening data, single-dose tests

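Assay of Toxoplasma gondii numbers, read through their beta-galactosidase reporter with a colour substrate. Tested at 50 µM. Higher reads as fewer parasites (inferred from which compounds were picked for retests). Of about 18,000 compounds tested this way, about 170 (0.94%) reached 50% or more in at least one test.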

The filed quantity is “Percent Effect” (%). The record does not define 0% and 100%; most values in the screen are far below 50% and negative numbers occur (in some assays of this library far below -100). The compounds are a random part of those screened.

| # | compound | effect |
|---|---|---|
| 1 | `CCNC(=O)Cn1ccc(N)n1` | -7.757% |
| 2 | `CN(CCCOc1ccc(C#N)cc1)CC(N)=O` | -7.927% |
| 3 | `CCNC(=O)CN(CC)S(=O)(=O)c1ccc(C)cc1` | 3.315% |
| 4 | `CCCNC(=O)c1[nH]cnc1C(=O)NC(C)C` | -2.38% |
| 5 | `CN(C)C1CCCN(C(=O)c2n[nH]c(N)c2Cl)CC1` (stereo unspecified) | -1.401% |
| 6 | `CN(Cc1ccco1)C(=O)Nc1ccc(N(C)C)nc1` | 24.04% |
| 7 | `CC(C1CC1)N(C)CC(=O)Nc1sccc1C(N)=O` (stereo unspecified) | -0.6129% |
| 8 | `COC(=O)c1cn(C)nc1C` | -0.3112% |
| 9 | `CN(C)C(=O)CCN1CCCC[C@@H]1CO` | 16.8% |
| 10 | `N#Cc1ccc(C(=O)N2CCCO2)nc1` | -1.519% |
| 11 | `Nc1ncn(-c2ncccc2F)n1` | 0.131% |
| 12 | `CC(C)(C)C(=O)N1CCN2C(=O)NCC2C1` (stereo unspecified) | -3.789% |
| 13 | `CC(C)CC(=O)NC1CCN(C(C)C)CC1` | -7.288% |
| 14 | `NS(=O)(=O)N1CCC(Cc2ccccc2)CC1` | -3.591% |
| 15 | `CCOC(=O)CCNC(=O)N1CCN(CC(C)C)CC1` | -10.29% |
| 16 | `CCCc1nccn1CCN1CCCS1(=O)=O` | -5.939% |
| 17 | `COc1ccccc1CCNC(=O)CN1CC(O)C1` | -8.641% |
| 18 | `CCN(CC)C(=O)COc1ccc(C(C)=O)c(F)c1` | -10.49% |
| 19 | `N#CCCn1cnc2ccccc21` | -10.29% |
| 20 | `COC[C@@H]1CCCN1Cc1cc2n(n1)CCCNC2` | -4.523% |
| 21 | `CC(C)C(=O)Nc1ccccc1CN(C)C` | -6.956% |
| 22 | `O=C1C=CC(=O)N1c1cccc(F)c1` | 13.35% |
| 23 | `O=C(N1CCOCC1)C1(c2ccc(F)cc2)CC1` | -3.081% |
| 24 | `CCN1CCN(c2ccc(F)cc2C(C)N)CC1` (stereo unspecified) | 6.147% |
| 25 | `CC(C)COCC1CCNCC1` | 3.232% |
| 26 | `O=C(COc1ccccc1)NCCn1ccnc1` | -5.476% |
| 27 | `CN(C)C(=O)c1ccc(CN)cc1` | 17.71% |
| 28 | `CN(Cc1ccccc1)C1(CN)CCC1` | -8.467% |
| 29 | `O=C1C[C@H]2CC[C@@H](CN1)N2Cc1ccc(CO)o1` | 14.88% |
| 30 | `COc1ncc(C)cc1NC(=O)CCc1cccnc1` | 3.41% |
| 31 | `CCc1c[nH]c(S(=O)(=O)Cc2noc(C(C)C)n2)n1` | -0.9465% |
| 32 | `O=C(CN1CCn2ccnc2C1)NCCc1cccs1` | -20.46% |
| 33 | `CC(N)c1ccccc1N1CCOCC1` (stereo unspecified) | 0.1688% |
| 34 | `O=C(Nc1cccnc1)c1ccccc1-n1cnnn1` | -20.95% |
| 35 | `CC(N)c1ccc(NC(=O)C2CC2)cc1` (stereo unspecified) | 17.87% |
| 36 | `CCOC(=O)CN(C)c1ccc2nnnn2n1` | 3.35% |
| 37 | `O=C1CN(C(=O)CNc2c(F)cccc2Cl)CCN1` | 3.269% |
| 38 | `CCC(=O)c1nccn1C` | 44.03% |
| 39 | `CCCOC1CCCN(c2ncc(C(N)=O)cc2Cl)C1` (stereo unspecified) | -15.53% |
| 40 | `CNC(=O)CN1CCCC1COc1ccccc1` (stereo unspecified) | -6.8% |
| 41 | `COC(=O)C(C)N(Cc1ccc(C(N)=O)cc1)C1CC1` (stereo unspecified) | -16.59% |
| 42 | `NCc1nc(-c2ccsc2)no1` | 13.61% |
| 43 | `CN(CC(N)=O)CC1CNCCO1` (stereo unspecified) | -13.53% |
| 44 | `Cc1nc(C(=O)OCCn2cccn2)cs1` | -20.46% |
| 45 | `O=C1CC(C2CCCC2)CC(=O)N1` | 0.2744% |
| 46 | `CN(CC(N)=O)C(=O)c1csc(-c2ccc(F)cc2)n1` | 3.34% |
| 47 | `O=C(Oc1nsnc1N1CCOCC1)c1ccccc1` | -3.216% |
| 48 | `COCCN(CCOC)CCOc1cccc(C#N)c1` | -4.678% |
| 49 | `Cc1ncsc1CCNC(=O)[C@@H](N)C(C)(C)C` | -6.039% |
| 50 | `O=C(c1cc(F)ccc1Br)N1CCNCC1` | 3.657% |
| 51 | `COC(=O)c1cnc2[nH]nc(C)c2c1` | 55.45% |
| 52 | `CCOC(C)c1nc(CNC)cs1` (stereo unspecified) | 9.719% |

Repeated from the top, 6 entries:

{"compound": "CCNC(=O)Cn1ccc(N)n1", "effect": -7.757}
{"compound": "CN(CCCOc1ccc(C#N)cc1)CC(N)=O", "effect": -7.927}
{"compound": "CCNC(=O)CN(CC)S(=O)(=O)c1ccc(C)cc1", "effect": 3.315}
{"compound": "CCCNC(=O)c1[nH]cnc1C(=O)NC(C)C", "effect": -2.38}
{"compound": "CN(C)C1CCCN(C(=O)c2n[nH]c(N)c2Cl)CC1", "stereo": "stereo unspecified", "effect": -1.401}
{"compound": "CN(Cc1ccco1)C(=O)Nc1ccc(N(C)C)nc1", "effect": 24.04}

Measurements from “University of Dundee, Small-Polar-MMV Screening Library” (2021), ChEMBL document CHEMBL3988442.